# Data as given in PubChem BioAssay AID2685 (National Center for Advancing Translational Sciences (NCATS), 2010).
# Some of the results follow. Shown are side measurements of this screen, not its main read-out; they come without a call. Compounds called inactive in the main read-out are mostly missing here. Potencies come from curve fits of mixed quality, noted in brackets.
# Experiment: qHTS Assay for Lipid Storage Modulators in Drosophila S3 Cells;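 for cell number change: cells counted by Cell Tracker Red CMTPX staining in the red channel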
# Conditions: BODIPY lipid droplet fluorescence, 18-24 h; for cell number change: measured here: cell count max response, cells fed with added oleic acid
# How it was run: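 Drosophila S3 cells got compounds at several concentrations plus oleic acid (400 uM solution). Laser-scanning cytometry with 488 nm excitation read lipid droplets at 500-530 nm and cells at 575-640 nm. Percent activity was relative to 20 uM Triacsin C.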
# [1] = measured here: lipid fluorescence (Fed channel) AC50, cells fed with added oleic acid
# [2] = measured here: cell number channel AC50, cells fed with added oleic acid
Compound,cell number change,AC50 [1],AC50 [2]
O=C(COc1cccc2c1CCN(Cc1ccc(Br)cc1)C2=O)NCc1ccco1,-27%,"11.6 µM [falling, partial curve, poor fit]",
CCOc1cc(N2CCOCC2)c(OCC)cc1NC(=O)c1ccc(NC(C)=O)cc1,-22.8%,"29.1 µM [falling, single point]",
Cc1ccc(-c2nn(-c3ccccc3Cl)cc2C(=O)NCC2CCCO2)cc1 (stereo not drawn),22.8%,"2.31 µM [rising, single point]",
Cc1cc2c(SCC(=O)N3CCN(c4ccccc4)CC3)ncnc2s1,,"3.66 µM [rising, single point]",
COC(=O)c1ccc(N2C(=O)C3C4C=CC(CC4)C3C2=O)cc1 (stereo not drawn),-15%,"0.0291 µM [rising, full curve, poor fit]",
COc1ccc(NC(=O)COC(=O)c2n[nH]c3ccccc23)c(OC)c1,-2.38%,"6.51 µM [rising, partial curve, poor fit]",
CCOCCCNS(=O)(=O)c1ccc(NC(=O)C2CC(=O)N(c3ccc(C)cc3)C2)cc1 (stereo not drawn),5.95%,,
Cn1c(CCC(=O)Nc2ccc(N3CCOCC3)cc2)nc(=O)c2ccccc21,17.1%,,
O=C(CSc1ccc(C(F)(F)F)cc1[N+](=O)[O-])Nc1ccc2ccccc2c1,-36%,,"29.1 µM [falling, single point]"
CSCCC(NS(=O)(=O)c1ccccc1F)C(=O)N1CCCCCCC1 (stereo not drawn),16.4%,"14.6 µM [rising, partial curve, poor fit]",
COc1ccc(CCNC(=O)c2ccc3c(c2)OCCO3)cc1,3%,,
CCCCC(CC)c1nnc(NC(=O)c2cccs2)s1 (stereo not drawn),-22.3%,"16.4 µM [falling, single point]",
N#Cc1cc2c(nc1SCc1cccnc1)CCC2,5.5%,,
CCOc1ccc(OCCOCCN2CCOCC2)cc1,-32.2%,"3.26 µM [falling, full curve]","3.66 µM [falling, full curve]"
COCCCNC(=S)N1CCCN(c2nc3cc(C)ccc3cc2C#N)CC1,-35.2%,"0.103 µM [falling, full curve, poor fit]","29.1 µM [falling, single point]"
CCOc1ccccc1OCC(=O)NCCc1ccc(S(N)(=O)=O)cc1,9.01%,"20.6 µM [falling, partial curve]",
COc1ccc(CN(C)C2CCCCC2)c(C)c1C,7.94%,"0.164 µM [falling, full curve, poor fit]",
CCOc1ccc(NC(=O)[C@@H](NC(=O)c2ccccc2Br)C(C)C)cc1,108%,"13 µM [rising, partial curve]",
COc1ccc(NC(=O)C(=S)N2CCCC2)cc1,-32%,"29.1 µM [falling, single point]","29.1 µM [falling, single point]"
COc1ccc(CC(=O)NCc2nnc(SCC(=O)Nc3ccccc3)n2C)cc1,3.87%,"2.06 µM [falling, single point]",
COc1ccc(C(O)c2nc3ccccc3n2C(C)C)cc1 (stereo not drawn),26.9%,"29.1 µM [rising, single point]",
O=C1/C(=C/c2ccccc2)SC(=S)N1N1C(=O)C2CC2C1=O (stereo not drawn),-44.3%,"1.64 µM [falling, full curve]","1.84 µM [falling, full curve]"

Compound,cell number change,AC50 [1],AC50 [2]
Cc1cc(C)cc(C(=O)Nc2nc3ccccc3[nH]2)c1,-10.5%,"6.31 µM [rising, single point]",
Cc1cc(C)cc(NC(=O)CSc2nnc(CNC(=O)c3cccs3)o2)c1,14.5%,"6.51 µM [falling, partial curve, poor fit]",
CCOc1ccccc1NC(=O)c1cc(Cl)ccc1NC(=O)c1ccco1,,"1.84 µM [rising, partial curve]","3.26 µM [rising, single point]"
CSc1cc(-c2ccc(Cl)cc2)n(Cc2ccccc2)c(=O)c1C#N,61.4%,"1.46 µM [rising, full curve]","23.1 µM [rising, single point]"
CC(=O)Nc1ccc(C(=O)NCC(=O)OCc2c(F)cccc2Cl)cc1,,"1.16 µM [falling, single point]",
C[C@@H](CC#N)CN1CC[C@H](C(C)(C)C)CCC1=O,-6.89%,"25.9 µM [rising, single point]",
Cc1ccc(Nc2oc(C)nc2C#N)cc1,3.93%,,
CCn1c(-c2ccccc2Cl)nn(CC(=O)NCCc2ccccc2)c1=S,38%,"10.3 µM [rising, partial curve, poor fit]","11.6 µM [rising, partial curve, poor fit]"
COc1ccc(N(CC(=O)N2CCN(c3ccc(F)cc3)CC2)S(=O)(=O)c2c(C)noc2C)cc1,-23.1%,,
CN1\C(=C/C=C/C=C/C=[N+](C)C)C(C)(C)c2ccccc21,-180%,,"29.1 µM [falling, single point]"
CCOc1ccc(C)cc1S(=O)(=O)n1nc(C)cc1C,52.7%,,"18.4 µM [rising, single point]"
Cc1ccc(-n2cc(-c3ccc([N+](=O)[O-])cc3)[nH]c2=S)c(C)c1,-15.9%,,
CCCCn1nnnc1SCC(=O)Nc1cccc(C)n1,,,"4.11 µM [rising, partial curve]"
CCOC(=O)c1sc(N)c(C#N)c1CSc1nc2ccc(C)cc2[nH]1,,,"0.092 µM [rising, full curve, poor fit]"
CC(=O)SC(C[N+](=O)[O-])c1cn(C(C)=O)c2ccccc12 (stereo not drawn),-30%,,
COc1ccccc1NC(=O)CSc1nnc2ccccn12,5.14%,,
Cc1ccc(C(=O)NCC(=O)NC23CC4CC(CC(C4)C2)C3)cc1,30.5%,"0.461 µM [rising, full curve]","32.6 µM [rising, partial curve, poor fit]"
O=C(Nc1nc2ccc(SC(F)F)cc2s1)c1ccc(NS(=O)(=O)c2ccc(F)c(F)c2)cc1,-5.37%,"25.9 µM [falling, single point]",
CC(C)(C)c1cc(C(F)(F)F)nc(SCCCNC(=O)c2ccco2)n1,133%,"2.06 µM [rising, partial curve]","2.06 µM [rising, full curve]"
Cc1ccc(SCC(=O)NC(=O)Nc2ccc3c(c2)OCCO3)cc1C,44.1%,"23.1 µM [rising, single point]","18.4 µM [rising, single point]"
CC(C)C[C@@H](CO)N1CCN(Cc2ccc(Br)cc2)CCC1=O,-11.7%,,
COc1cc(C(=O)N=C2SC3CS(=O)(=O)CC3N2c2ccccc2)cc(OC)c1OC (stereo not drawn),7.25%,"0.13 µM [rising, full curve, poor fit]",

# Sorted by SMILES length (ascending): six of the compounds above
Compound,cell number change,AC50 [1],AC50 [2]
CCCCn1nnnc1SCC(=O)Nc1cccc(C)n1,,,"4.11 µM [rising, partial curve]"
COc1ccccc1NC(=O)CSc1nnc2ccccn12,5.14%,,
Cc1cc(C)cc(C(=O)Nc2nc3ccccc3[nH]2)c1,-10.5%,"6.31 µM [rising, single point]",
CCn1c(-c2ccccc2Cl)nn(CC(=O)NCCc2ccccc2)c1=S,38%,"10.3 µM [rising, partial curve, poor fit]","11.6 µM [rising, partial curve, poor fit]"
Cc1ccc(C(=O)NCC(=O)NC23CC4CC(CC(C4)C2)C3)cc1,30.5%,"0.461 µM [rising, full curve]","32.6 µM [rising, partial curve, poor fit]"
COc1ccc(N(CC(=O)N2CCN(c3ccc(F)cc3)CC2)S(=O)(=O)c2c(C)noc2C)cc1,-23.1%,,

# Remaining list, next part

Compound,cell number change,AC50 [1],AC50 [2]
CCCCC(=O)Nc1cc(N(C)C)nc2ccccc12,4.89%,"1.16 µM [rising, full curve]",
CCCn1c(N)c(N2CCCCC2)c(=O)n(CC(=O)Nc2ccccc2C)c1=O,8.37%,"7.31 µM [rising, partial curve, poor fit]",
CCOC(=O)C1(Cc2cccc(Cl)c2)CCCN(C(=O)c2ccoc2C)C1 (stereo not drawn),-22.3%,"0.00517 µM [rising, full curve, poor fit]",
O=C1CCCN1CCCNS(=O)(=O)c1ccc(Br)s1,-15.5%,,
O=S(=O)(NC1CCCCC1NS(=O)(=O)c1ccc(F)cc1)c1ccc(F)cc1 (stereo not drawn),19.2%,,
CN(C)C(CNC(=O)c1cc(Br)ccc1Cl)c1ccco1 (stereo not drawn),16.9%,,
Cc1ccccc1C(=O)NNC(=O)c1ccncc1,17.9%,"29.1 µM [rising, single point]",
CCN(CC)S(=O)(=O)c1cc(C(=O)Nc2ccccc2[N+](=O)[O-])ccc1Cl,3.41%,"1.3 µM [rising, full curve, poor fit]",
CCc1c(C)nc(N2CCN(c3ccc(F)cc3)CC2)[nH]c1=O,13.3%,"6.51 µM [falling, single point]",
COCC(COS(N)(=O)=O)Cc1ccccc1 (stereo not drawn),2.91%,"29.1 µM [rising, single point]",
Cc1cccc(C(=O)OC(C)C(=O)NC2CCCc3ccccc32)c1O (stereo not drawn),30.3%,"6.51 µM [rising, partial curve, poor fit]",
O=c1c2cc(F)ccc2sn1-c1ccc(F)cc1,-85.6%,"5.8 µM [falling, full curve]","10.3 µM [falling, partial curve]"
COc1cc(NC(=O)c2cc(S(=O)(=O)N3CCCCC3)c[nH]2)cc(OC)c1,15%,,
CC(C)C(NC(=O)c1ccc(C(C)(C)C)cc1)C(=O)O (stereo not drawn),12.1%,,
O=C(/C=C/c1cccc([N+](=O)[O-])c1)NCc1ccccc1,-96.1%,"29.1 µM [falling, partial curve]","29.1 µM [falling, single point]"
Cc1nonc1OCCNC(=O)C12CC3CC(CC(C3)C1)C2,-12.1%,"11.6 µM [falling, partial curve, poor fit]",
O=C(NC1CCCCCC1)c1cc2c(=O)n3ccccc3nc2s1,28.6%,,
CCCCOc1ccc(C(=O)N/C(=C\c2ccc(OC)cc2)C(=O)OCc2ccco2)cc1,-28.7%,,"0.82 µM [rising, full curve, poor fit]"
CN(C)c1ccc(CNc2ccc3c(c2)ncn3C)cc1,,"0.13 µM [falling, full curve, poor fit]",
Cc1cccc(-c2nsc(SCC(=O)Nc3cc(C)on3)n2)c1,3.07%,"0.00461 µM [falling, full curve, poor fit]",
